In PubChem BioAssay AID1487 (National Center for Advancing Translational Sciences (NCATS), 2009) one finds AC50 data, which are given here for 54 compounds.

By AC50 is commonly meant the concentration at which the activity in the assay is half-maximal.

This test is described as follows: qHTS Assay for Modulators of Lamin A Splicing. To be noted: HeLa LMNA splicing GFP/RFP minigene ratio, 48 h. In a few lines:
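S3 HeLa stable clones carrying a lamin A-EGFP splicing minigene plus DsRed2 were seeded at 600 cells/well in Opti-MEM with 2% FBS, pin-dosed and incubated 48 h at 37°C. Acumen cytometry (488 nm) gave the GFP/RFP total-intensity ratio.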
On the technique in general: In qHTS, concentration-response curves come from the screen itself.

Where [1] appears, read: measured here: GFP splicing reporter channel.
Where [2] appears, read: measured here: RFP viability control channel.

Some of the results follow. Further columns of the screen follow, without active or inactive calls. Compounds called inactive in the main read-out are mostly missing here. Words in brackets tell the shape of the fitted curve; partial curves, single points and poor fits give uncertain potencies.

Turning to `CCCCc1nc2c(c3c1C[C@H](C)OC3)CN(C(=O)c1ccco1)CC2`, the concentration at half-maximal activity (AC50) was 0.00141 µM [rising, full curve, poor fit] under setting [1] and 0.891 µM [rising, partial curve, poor fit] under setting [2].

For the compound `O=S(=O)(/C=C/c1ccccc1)N1CCN(c2nc(-c3ccccc3)nc3ccccc23)CC1`, the half-maximal activity concentration (AC50) runs as follows: under setting [1], 0.00501 µM [falling, full curve, poor fit]; under setting [2], 0.00501 µM [falling, full curve, poor fit].

Consider `O=S(=O)(CCc1nc2ccccc2[nH]1)c1ccc(Cl)cc1`, for which the half-maximal activity concentration (AC50) under setting [2] was 31.6 µM [rising, single point].

For `Cc1ccc(/C=C/C(=O)c2ccccc(=O)c2O)c(C)c1`, the AC50 under setting [2] is 10 µM [rising, partial curve].

With `COc1ccc2[nH]c(C)c(CCNC(=S)Nc3cc(C)cc(C)c3)c2c1`, the AC50 under setting [1] is 35.5 µM [rising, single point] and the AC50 under setting [2] was 31.6 µM [rising, single point].

With `COc1ccc(-c2cccc(NS(=O)(=O)c3cc(C(F)(F)F)ccc3Cl)c2)nn1`, the AC50 is, setting by setting: under setting [1], 7.08 µM [falling, full curve, poor fit]; under setting [2], 11.2 µM [falling, partial curve, poor fit].

Turning to `Cn1cc(CCCC(=O)NCc2cccc(Br)c2)c2ccccc21`, the concentration at half-maximal activity (AC50) by setting is: under setting [1], 10 µM [rising, partial curve]; under setting [2], 5.62 µM [rising, partial curve].

As to `Cc1ccc(C(O)c2nc3ccccc3n2C(C)C)cc1` (stereo not given), under setting [2], the concentration at half-maximal activity (AC50) was 11.2 µM [rising, partial curve].

As to `Nc1ccc(N2CCN(c3ccc(Cl)c(Cl)c3)CC2)cc1`, the concentration at half-maximal activity (AC50) runs as follows: under setting [1], 7.08 µM [rising, partial curve, poor fit]; under setting [2], 15.8 µM [rising, single point].

`O=C(CCc1ccccc1)N1CCc2c([nH]c3ccccc23)C1c1ccc(Cl)cc1` (stereo not given): under setting [1], the concentration at half-maximal activity (AC50) was 3.98 µM [falling, full curve, poor fit].

With `CCc1ccccc1NC(=O)CSc1nc2ncccc2o1`, the AC50 under setting [1] is 14.1 µM [rising, single point].

Regarding `CC(C)(C)c1nc(NCCN2CCOCC2)c2nnn(Cc3ccccc3Cl)c2n1`, the AC50 reads like this: under setting [1], 5.01 µM [rising, full curve, poor fit]; under setting [2], 4.47 µM [rising, partial curve, poor fit].

Turning to `CCCCCc1ccc(OCCCC[n+]2cccc(C)c2)c(CCCCC)c1`, the AC50 under setting [1] was 0.316 µM [rising, partial curve] and the half-maximal activity concentration (AC50) under setting [2] was 0.158 µM [rising, full curve, poor fit].

With `O=[n+]1cc(-c2ccc(Br)cc2)n([O-])c2c1CCC2`, the AC50 reads like this: under setting [1], 35.5 µM [rising, single point]; under setting [2], 35.5 µM [rising, single point].

Consider `CCNc1ncc2nc(-c3cccs3)c(=O)n(-c3ccccc3)c2n1`, for which the AC50 under setting [1] is 12.6 µM [falling, single point] and the concentration at half-maximal activity (AC50) under setting [2] is 12.6 µM [falling, single point].

Turning to `Cc1c(NC(=O)COC(=O)C2(c3ccc(F)cc3)CCCC2)c(=O)n(-c2ccccc2)n1C`, the AC50 by setting is: under setting [1], 0.0112 µM [falling, full curve]; under setting [2], 0.02 µM [falling, full curve].

`Cc1ccc(NC(=O)CSC2=C(C#N)C(c3ccc4c(c3)OCO4)C3=C(CCCC3=O)N2)c(C)c1` (stereo not given): the half-maximal activity concentration (AC50) is 11.2 µM [rising, single point] under setting [1] and 11.2 µM [rising, single point] under setting [2].

`CCCCOc1ccc(CN(C)c2ncnc(N)n2)cc1`: the AC50 under setting [1] was 12.6 µM [rising, partial curve, poor fit] and the half-maximal activity concentration (AC50) under setting [2] is 14.1 µM [rising, partial curve].

`O=C(Oc1c(Cl)cc(Cl)c2cccnc12)c1cccc([N+](=O)[O-])c1`: the concentration at half-maximal activity (AC50) under setting [2] was 11.2 µM [rising, partial curve].

Consider `CCCCCCCCCCCC(=O)NC1CCS(=O)(=O)C1` (stereo not given), for which the concentration at half-maximal activity (AC50) under setting [1] was 10 µM [falling, partial curve, poor fit].

In the case of `CCn1c2ccccc2c2cc(/C(C)=N/O)ccc21`, the half-maximal activity concentration (AC50) under setting [1] was 2.24 µM [falling, partial curve, poor fit] and the AC50 under setting [2] was 1.58 µM [falling, partial curve, poor fit].

For the compound `Cc1cccc(NC(=S)NCC23C=CC(O2)C2C(=O)N(c4ccc(Cl)cc4)C(=O)C23)c1` (stereo not given), the half-maximal activity concentration (AC50) under setting [2] is 12.6 µM [rising, single point].

For the compound `Cc1c(C)n(Cc2ccccc2)c2ncnc(N)c12`, the AC50 under setting [1] is 11.2 µM [rising, single point].

For the compound `COc1ccc(NC(=S)Nc2ccc(S(N)(=O)=O)cc2)c(OC)c1`, the concentration at half-maximal activity (AC50) under setting [1] was 12.6 µM [falling, partial curve, poor fit].

As for `CN(C)c1ccc(-c2ccc3ncnc(NCc4ccccc4)c3c2)cc1`, the AC50 under setting [1] was 35.5 µM [falling, single point].

Turning to `CCNc1ccc(S(=O)(=O)N(C)C)cc1NCC(=O)Nc1ccc(F)c(Cl)c1`, the AC50 under setting [2] was 12.6 µM [rising, partial curve].

As to `CC(C)N(Cc1cn[nH]c1-c1ccc(-c2ccccc2)cc1)Cc1nccn1C`, the AC50 is 0.00501 µM [falling, full curve, poor fit] under setting [1] and 0.00501 µM [falling, full curve, poor fit] under setting [2].

In the case of `O=C(Nc1nc(-c2cccs2)cs1)c1ccc(Cl)s1`, the concentration at half-maximal activity (AC50) under setting [2] is 3.98 µM [rising, full curve, poor fit].

For `O=C(N/N=C/c1sc(N2CCOCC2)nc1-c1ccccc1)c1ccccc1O`, the half-maximal activity concentration (AC50) under setting [2] is 35.5 µM [rising, single point].

As to `Cc1ccc(S(=O)(=O)c2cc3cc(Br)ccc3oc2=O)cc1`, the AC50 under setting [2] is 3.16 µM [rising, single point].

Regarding `O=C(NC(=S)Nc1cccc(Cl)c1N1CCCCC1)c1ccc2c(c1)OCCO2`, the half-maximal activity concentration (AC50) was 35.5 µM [falling, single point] under setting [1] and 35.5 µM [falling, single point] under setting [2].

Regarding `COc1ccc(CC(=O)Nc2ccc3nc(Nc4cccc(Cl)c4)cc(C)c3c2)cc1`, under setting [2], the concentration at half-maximal activity (AC50) was 35.5 µM [rising, single point].

On to `CCCCCOC(=O)C1=C(C)Nc2ncnn2C1c1cccs1` (stereo not given), for which, under setting [2], the AC50 was 17.8 µM [rising, single point].

In the case of `Cc1ccc(/C=N\NC(=O)Cc2cccn2C)o1`, the AC50 under setting [1] was 7.08 µM [rising, partial curve, poor fit].

In the case of `Cc1nc(CS(=O)(=O)c2ccccc2)cc(Sc2ccc(Cl)cc2Cl)n1`, under setting [2], the AC50 was 35.5 µM [rising, single point].

As to `Cc1ccc(C(=O)N2CCN(c3ccc(NC(=S)NC(=O)c4cccs4)cc3)CC2)cc1`, the half-maximal activity concentration (AC50) by setting is: under setting [1], 8.91 µM [falling, partial curve, poor fit]; under setting [2], 8.91 µM [falling, partial curve, poor fit].

Regarding `O=C(Nc1nc(-c2ccc(Cl)s2)cs1)c1ccncc1`, the half-maximal activity concentration (AC50) reads like this: under setting [1], 1.41 µM [rising, partial curve, poor fit]; under setting [2], 3.16 µM [rising, full curve].

For the compound `CCOC(=O)C1Sc2[nH]c(=O)sc2C(c2ccc(Cl)cc2)C1C(=O)OCC` (stereo not given), the AC50 under setting [2] is 8.91 µM [rising, partial curve].

As for `NCCCC[C@@H]1NC(=O)[C@H](CCC(=O)O)NC(=O)c2cc([N+](=O)[O-])cc(I)c2NCC[C@@H](C(N)=O)NC1=O`, the AC50 is 20 µM [rising, single point] under setting [1] and 15.8 µM [rising, partial curve, poor fit] under setting [2].

For `COc1ccc(-c2cc(C(=O)Nc3ccccc3N3CCOCC3)c3ccccc3n2)cc1OC`, the concentration at half-maximal activity (AC50) under setting [2] is 7.08 µM [rising, partial curve].

Turning to `Brc1ccc(CSc2ccc3nnc(-c4cccnc4)n3n2)cc1`, the concentration at half-maximal activity (AC50) under setting [1] is 25.1 µM [falling, partial curve].

Turning to `CCOC(=O)c1ccccc1NC(=O)CSc1nc2ccccc2o1`, the AC50 under setting [2] was 12.6 µM [rising, single point].

On to `COc1ccc(OC)c(NC(=O)c2c(NCc3ccc(OC)c(OC)c3)sc3c2CCC(C)C3)c1` (stereo not given), for which the AC50 under setting [2] is 35.5 µM [falling, single point].

As to `C[n+]1ccc(/C=C/c2c[nH]c3ccccc23)cc1`, under setting [2], the concentration at half-maximal activity (AC50) was 12.6 µM [rising, single point].

On to `CN1CCN(C2(CNC(=O)c3ccc([N+](=O)[O-])cc3)CCCCC2)CC1`, for which the half-maximal activity concentration (AC50) under setting [2] was 35.5 µM [rising, single point].

Consider `O=C(O)CNC(=O)C12CC3CC(CC(Cl)(C3)C1)C2`, for which the AC50 under setting [1] was 11.2 µM [falling, partial curve, poor fit].

As to `N#CC(C#N)=C1C=C2C=C(N3CCCCCC3)CCC2CC1` (stereo not given), the AC50 was 0.447 µM [falling, full curve] under setting [1] and 0.447 µM [falling, full curve] under setting [2].

Consider `NS(=O)(=O)c1ccc(NC(=O)COC(=O)COc2ccc(Cl)cc2)cc1`, for which the half-maximal activity concentration (AC50) under setting [1] is 1.58 µM [rising, partial curve, poor fit].

Regarding `COc1ccc(-n2c(C)nc3c(cnn3-c3ccccc3)c2=O)cc1`, the concentration at half-maximal activity (AC50) under setting [2] is 11.2 µM [rising, partial curve].

For `Cc1ccc(OCC(=O)Nc2ccc(S(=O)(=O)N3CCOCC3)cc2)c([N+](=O)[O-])n1`, the concentration at half-maximal activity (AC50) under setting [2] was 0.158 µM [falling, full curve, poor fit].

In the case of `Cc1cccc(Cn2cc(S(=O)(=O)c3ccccc3)c(=O)c3cc(F)c(N4CCOCC4)cc32)c1`, the AC50 is, setting by setting: under setting [1], 35.5 µM [falling, single point]; under setting [2], 35.5 µM [falling, single point].

Take `Cc1cccc(NC(=O)CSc2cc(C(=O)c3nccn3C)c3ccccc3n2)c1`: the concentration at half-maximal activity (AC50) under setting [2] was 0.158 µM [rising, full curve, poor fit].

On to `CCCc1nc2ccccc2n1CCc1ccccc1`, for which the half-maximal activity concentration (AC50) under setting [2] is 17.8 µM [rising, single point].

Turning to `CC1CC(Nc2ccccc2)c2ccccc2N1C(=O)c1cccnc1` (stereo not given), the AC50 under setting [2] is 2 µM [rising, full curve, poor fit].
